Results as given in the supplement of paper PMC12819154, “High-throughput peptide-centric local stability assay extends protein–ligand identification to membrane proteins, tissues and bacteria” (Nature Structural & Molecular Biology, 2025).
The other results are listed elsewhere or left out. Small differences around the control level are noise.

By UniProt entry, the sequences of proteins in these tests, tags left out. Where a name states a change or a piece, a line headed by the entry shows the natural chain unless it says otherwise.
UniProt Q9D486: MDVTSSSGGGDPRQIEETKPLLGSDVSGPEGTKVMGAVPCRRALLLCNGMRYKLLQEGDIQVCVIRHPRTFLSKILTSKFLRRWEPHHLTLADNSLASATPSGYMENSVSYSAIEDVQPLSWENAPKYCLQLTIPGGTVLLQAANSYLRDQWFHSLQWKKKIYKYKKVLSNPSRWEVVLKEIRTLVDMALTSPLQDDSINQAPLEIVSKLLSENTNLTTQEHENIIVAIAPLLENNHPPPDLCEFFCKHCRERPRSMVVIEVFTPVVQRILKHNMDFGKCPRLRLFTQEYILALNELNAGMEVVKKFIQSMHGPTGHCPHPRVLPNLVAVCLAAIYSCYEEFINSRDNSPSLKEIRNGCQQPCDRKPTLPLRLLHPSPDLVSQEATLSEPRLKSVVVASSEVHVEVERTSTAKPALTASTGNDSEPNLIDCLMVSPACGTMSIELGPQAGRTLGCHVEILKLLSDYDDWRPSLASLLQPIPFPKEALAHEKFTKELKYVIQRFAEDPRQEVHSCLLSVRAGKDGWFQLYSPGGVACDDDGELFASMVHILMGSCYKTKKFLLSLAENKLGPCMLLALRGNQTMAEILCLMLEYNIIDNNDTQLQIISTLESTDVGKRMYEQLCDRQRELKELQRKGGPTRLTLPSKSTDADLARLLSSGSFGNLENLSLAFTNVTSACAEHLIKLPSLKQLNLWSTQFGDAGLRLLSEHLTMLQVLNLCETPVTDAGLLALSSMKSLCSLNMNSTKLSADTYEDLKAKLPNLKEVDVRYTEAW
UniProt Q9D6K7: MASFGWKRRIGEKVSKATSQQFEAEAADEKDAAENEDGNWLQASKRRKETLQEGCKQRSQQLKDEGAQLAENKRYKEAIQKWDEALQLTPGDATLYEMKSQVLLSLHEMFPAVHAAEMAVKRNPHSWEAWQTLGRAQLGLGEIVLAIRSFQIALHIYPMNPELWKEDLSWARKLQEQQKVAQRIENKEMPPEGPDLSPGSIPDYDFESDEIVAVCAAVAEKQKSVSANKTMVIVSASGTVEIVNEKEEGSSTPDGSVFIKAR
UniProt Q9D2N9: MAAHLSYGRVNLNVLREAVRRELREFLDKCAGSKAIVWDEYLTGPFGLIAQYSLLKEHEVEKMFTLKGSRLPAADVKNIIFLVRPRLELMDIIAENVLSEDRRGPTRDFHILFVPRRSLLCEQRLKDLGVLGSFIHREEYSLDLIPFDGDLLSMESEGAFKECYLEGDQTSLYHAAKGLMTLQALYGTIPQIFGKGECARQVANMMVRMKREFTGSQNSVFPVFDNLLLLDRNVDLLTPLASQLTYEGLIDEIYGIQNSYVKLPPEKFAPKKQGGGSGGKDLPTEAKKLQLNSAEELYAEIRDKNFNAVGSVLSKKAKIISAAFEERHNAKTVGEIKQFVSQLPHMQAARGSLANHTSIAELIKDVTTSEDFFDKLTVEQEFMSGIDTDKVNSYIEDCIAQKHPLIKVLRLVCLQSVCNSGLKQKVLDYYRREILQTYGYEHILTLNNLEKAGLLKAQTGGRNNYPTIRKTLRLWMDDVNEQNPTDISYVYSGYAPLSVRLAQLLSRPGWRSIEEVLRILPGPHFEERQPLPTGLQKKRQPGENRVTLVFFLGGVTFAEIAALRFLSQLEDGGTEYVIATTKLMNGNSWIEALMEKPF
UniProt Q9D1Q1: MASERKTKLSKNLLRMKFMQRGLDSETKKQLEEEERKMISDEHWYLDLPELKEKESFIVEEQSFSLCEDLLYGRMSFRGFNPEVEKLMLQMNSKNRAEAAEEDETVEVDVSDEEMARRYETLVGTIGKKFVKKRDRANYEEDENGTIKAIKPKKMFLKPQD
UniProt Q9D786: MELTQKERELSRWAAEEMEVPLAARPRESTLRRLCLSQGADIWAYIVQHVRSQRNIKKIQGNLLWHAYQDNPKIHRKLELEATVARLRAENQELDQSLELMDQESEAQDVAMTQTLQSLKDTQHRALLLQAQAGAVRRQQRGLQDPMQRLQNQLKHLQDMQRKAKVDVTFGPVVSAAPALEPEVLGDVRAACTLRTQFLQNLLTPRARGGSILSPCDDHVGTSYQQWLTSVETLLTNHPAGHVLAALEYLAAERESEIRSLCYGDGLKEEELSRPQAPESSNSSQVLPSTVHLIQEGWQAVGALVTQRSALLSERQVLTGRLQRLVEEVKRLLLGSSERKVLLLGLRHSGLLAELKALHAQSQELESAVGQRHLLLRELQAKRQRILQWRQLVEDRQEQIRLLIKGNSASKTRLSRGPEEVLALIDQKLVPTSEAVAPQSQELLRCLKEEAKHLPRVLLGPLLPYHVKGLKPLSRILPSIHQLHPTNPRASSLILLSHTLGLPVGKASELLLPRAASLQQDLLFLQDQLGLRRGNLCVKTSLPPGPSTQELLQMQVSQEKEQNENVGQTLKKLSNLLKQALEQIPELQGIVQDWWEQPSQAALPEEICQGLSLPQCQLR
UniProt Q9D2G2: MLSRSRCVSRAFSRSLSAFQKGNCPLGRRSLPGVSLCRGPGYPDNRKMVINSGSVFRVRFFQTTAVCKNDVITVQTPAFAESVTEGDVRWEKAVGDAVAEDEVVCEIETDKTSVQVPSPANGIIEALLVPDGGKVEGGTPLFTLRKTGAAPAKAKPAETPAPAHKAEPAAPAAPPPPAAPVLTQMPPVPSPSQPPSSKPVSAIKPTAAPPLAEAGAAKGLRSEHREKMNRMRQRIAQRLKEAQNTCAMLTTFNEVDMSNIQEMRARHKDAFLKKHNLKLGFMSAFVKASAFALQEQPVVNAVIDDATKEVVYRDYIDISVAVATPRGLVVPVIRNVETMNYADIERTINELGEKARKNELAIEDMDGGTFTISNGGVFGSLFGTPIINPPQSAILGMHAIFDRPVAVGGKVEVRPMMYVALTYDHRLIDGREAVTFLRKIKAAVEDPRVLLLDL
UniProt Q9D1E8: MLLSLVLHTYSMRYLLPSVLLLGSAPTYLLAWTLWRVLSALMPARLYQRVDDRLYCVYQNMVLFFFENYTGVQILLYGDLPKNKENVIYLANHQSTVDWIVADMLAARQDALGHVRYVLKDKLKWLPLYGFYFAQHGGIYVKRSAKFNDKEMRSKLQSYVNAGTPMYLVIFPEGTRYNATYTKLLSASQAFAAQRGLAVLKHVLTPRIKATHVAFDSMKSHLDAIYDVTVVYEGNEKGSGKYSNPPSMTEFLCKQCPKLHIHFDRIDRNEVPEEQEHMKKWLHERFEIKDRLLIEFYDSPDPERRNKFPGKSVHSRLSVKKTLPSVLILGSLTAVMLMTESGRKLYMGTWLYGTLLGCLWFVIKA
UniProt Q9D8M4, whole entry: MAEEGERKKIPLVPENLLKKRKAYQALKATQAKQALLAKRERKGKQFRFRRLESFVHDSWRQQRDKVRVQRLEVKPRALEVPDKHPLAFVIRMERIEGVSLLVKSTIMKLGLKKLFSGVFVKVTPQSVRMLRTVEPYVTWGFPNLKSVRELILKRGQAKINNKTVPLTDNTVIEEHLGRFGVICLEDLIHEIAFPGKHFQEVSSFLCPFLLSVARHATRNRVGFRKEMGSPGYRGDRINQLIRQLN
UniProt Q9D3N8: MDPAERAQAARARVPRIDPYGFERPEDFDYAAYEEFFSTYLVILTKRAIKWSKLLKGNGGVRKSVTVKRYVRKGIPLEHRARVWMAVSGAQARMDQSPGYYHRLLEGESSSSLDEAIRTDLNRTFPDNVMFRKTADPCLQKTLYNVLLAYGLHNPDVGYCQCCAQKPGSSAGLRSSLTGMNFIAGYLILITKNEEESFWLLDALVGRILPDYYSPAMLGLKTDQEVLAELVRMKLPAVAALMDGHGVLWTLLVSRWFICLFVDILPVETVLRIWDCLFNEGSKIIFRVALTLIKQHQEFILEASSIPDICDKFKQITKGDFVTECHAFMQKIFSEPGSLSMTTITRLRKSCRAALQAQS
UniProt Q9D4J1, whole entry: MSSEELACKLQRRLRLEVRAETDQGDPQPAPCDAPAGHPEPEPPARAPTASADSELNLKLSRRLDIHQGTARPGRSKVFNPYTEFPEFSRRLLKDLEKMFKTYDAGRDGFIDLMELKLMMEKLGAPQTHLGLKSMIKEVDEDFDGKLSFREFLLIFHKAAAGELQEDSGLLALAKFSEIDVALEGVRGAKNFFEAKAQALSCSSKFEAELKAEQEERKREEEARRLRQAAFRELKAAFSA
UniProt Q9D7N9: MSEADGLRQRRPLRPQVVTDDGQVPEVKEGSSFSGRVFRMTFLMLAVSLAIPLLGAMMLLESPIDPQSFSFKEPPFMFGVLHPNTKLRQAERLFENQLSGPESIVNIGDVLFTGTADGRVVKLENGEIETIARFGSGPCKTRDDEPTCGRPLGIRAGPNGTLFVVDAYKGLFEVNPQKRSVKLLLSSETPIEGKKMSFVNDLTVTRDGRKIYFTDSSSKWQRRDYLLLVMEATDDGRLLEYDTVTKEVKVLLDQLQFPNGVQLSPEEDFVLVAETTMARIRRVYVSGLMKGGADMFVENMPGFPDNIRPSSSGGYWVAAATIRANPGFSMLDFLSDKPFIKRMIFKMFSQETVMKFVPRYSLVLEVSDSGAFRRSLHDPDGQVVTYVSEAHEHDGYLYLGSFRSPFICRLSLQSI
UniProt Q9D1N9, whole entry: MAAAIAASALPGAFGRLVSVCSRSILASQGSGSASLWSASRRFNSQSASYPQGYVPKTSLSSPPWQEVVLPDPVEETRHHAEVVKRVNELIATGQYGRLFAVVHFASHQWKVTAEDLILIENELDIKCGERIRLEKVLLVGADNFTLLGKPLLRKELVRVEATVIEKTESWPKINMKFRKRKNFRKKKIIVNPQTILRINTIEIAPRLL
UniProt Q9D7K5: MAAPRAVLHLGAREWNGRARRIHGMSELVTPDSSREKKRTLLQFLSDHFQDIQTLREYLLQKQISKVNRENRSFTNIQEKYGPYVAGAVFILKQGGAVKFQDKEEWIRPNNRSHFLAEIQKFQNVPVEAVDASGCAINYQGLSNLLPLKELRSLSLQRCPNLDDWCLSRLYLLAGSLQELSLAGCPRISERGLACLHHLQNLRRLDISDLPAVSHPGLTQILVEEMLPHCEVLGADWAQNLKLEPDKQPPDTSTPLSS
UniProt Q9D1H7: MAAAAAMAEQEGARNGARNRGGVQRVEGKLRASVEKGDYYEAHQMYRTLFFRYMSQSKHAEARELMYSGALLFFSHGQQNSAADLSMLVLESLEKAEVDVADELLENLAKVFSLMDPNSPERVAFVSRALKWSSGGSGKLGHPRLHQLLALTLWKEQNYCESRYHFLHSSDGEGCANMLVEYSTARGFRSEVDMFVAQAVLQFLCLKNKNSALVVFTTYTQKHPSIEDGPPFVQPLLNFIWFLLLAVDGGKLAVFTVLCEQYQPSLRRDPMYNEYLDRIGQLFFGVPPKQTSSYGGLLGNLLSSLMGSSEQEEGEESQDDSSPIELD
UniProt Q9D6Y4: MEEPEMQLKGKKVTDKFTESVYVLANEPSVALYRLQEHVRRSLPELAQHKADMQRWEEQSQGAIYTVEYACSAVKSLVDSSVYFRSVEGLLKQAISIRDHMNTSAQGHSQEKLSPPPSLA
UniProt Q9D8P7: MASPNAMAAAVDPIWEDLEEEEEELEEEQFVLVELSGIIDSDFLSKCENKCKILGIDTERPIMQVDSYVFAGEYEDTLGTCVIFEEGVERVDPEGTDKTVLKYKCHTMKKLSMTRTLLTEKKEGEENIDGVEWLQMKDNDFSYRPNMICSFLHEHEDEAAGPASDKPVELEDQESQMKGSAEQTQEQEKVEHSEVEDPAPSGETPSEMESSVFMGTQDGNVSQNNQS
UniProt Q9D924: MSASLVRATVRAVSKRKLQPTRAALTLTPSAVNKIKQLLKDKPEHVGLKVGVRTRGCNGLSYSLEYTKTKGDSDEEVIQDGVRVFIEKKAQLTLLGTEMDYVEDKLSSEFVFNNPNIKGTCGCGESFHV
UniProt Q9D7A8: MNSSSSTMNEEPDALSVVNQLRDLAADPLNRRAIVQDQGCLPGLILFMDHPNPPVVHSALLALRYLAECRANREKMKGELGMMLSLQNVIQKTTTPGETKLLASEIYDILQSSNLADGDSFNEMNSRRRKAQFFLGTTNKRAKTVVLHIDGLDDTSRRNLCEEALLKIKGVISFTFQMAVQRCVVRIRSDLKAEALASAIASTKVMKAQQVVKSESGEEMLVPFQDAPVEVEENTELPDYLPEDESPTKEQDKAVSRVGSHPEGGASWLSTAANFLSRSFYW
UniProt Q9D9H8: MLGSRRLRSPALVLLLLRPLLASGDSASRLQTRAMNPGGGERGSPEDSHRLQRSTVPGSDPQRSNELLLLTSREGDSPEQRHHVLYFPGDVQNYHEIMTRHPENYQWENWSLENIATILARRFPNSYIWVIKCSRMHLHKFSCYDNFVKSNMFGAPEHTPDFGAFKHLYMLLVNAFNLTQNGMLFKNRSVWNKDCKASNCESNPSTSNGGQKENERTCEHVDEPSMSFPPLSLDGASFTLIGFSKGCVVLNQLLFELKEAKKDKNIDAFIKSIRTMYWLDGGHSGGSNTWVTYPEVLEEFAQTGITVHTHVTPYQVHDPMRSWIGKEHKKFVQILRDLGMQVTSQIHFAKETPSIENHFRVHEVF
UniProt Q9D1L0: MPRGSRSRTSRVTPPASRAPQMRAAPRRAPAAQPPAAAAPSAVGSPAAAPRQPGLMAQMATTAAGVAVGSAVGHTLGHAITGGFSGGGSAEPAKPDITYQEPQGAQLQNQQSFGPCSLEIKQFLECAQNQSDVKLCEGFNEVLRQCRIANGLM

What follows are targets tested with CN[C@@H]1C[C@H]2O[C@@](C)([C@@H]1OC)n1c3ccccc3c3c4c(c5c6ccccc6n2c5c31)C(=O)NC4 [staurosporine] (assay: log2 fold change of tryptic peptide abundance, ligand vs vehicle (limited proteolysis) (log2 ratio); higher = more trypsin-susceptible (destabilized)). Conditions: ligand concentration: 20 uM; sample: mouse liver crude lysate; replicate design: treated separately.

**Q.** “UniProt Q9D486 (peptide sequence: LSADTYEDLK, peptide start residue: 747)” was tested. Which log2 fold change did it give?
**A.** The log2 fold change was -0.394.

**Q.** Which log2 fold change does the source give for “UniProt Q9D6K7 (peptide sequence: KETLQEGCKQR, peptide start residue: 48)” here?
**A.** The log2 fold change was -0.737.

**Q.** How did the log2 fold change turn out when “UniProt Q9D2N9 (peptide sequence: KQGGGSGGKDLPTEAK, peptide start residue: 272)” was run?
**A.** Its log2 fold change is -0.405.

**Q.** For “UniProt Q9D1Q1 (peptide sequence: GFNPEVEK, peptide start residue: 79)”, which log2 fold change is on record?
**A.** Its log2 fold change is -0.266.

**Q.** How did the log2 fold change turn out when “UniProt Q9D2Q2 (peptide sequence: NSHQVFEVLNGR, peptide start residue: 631)” was run?
**A.** Its log2 fold change is 0.287.

**Q.** How did the log2 fold change turn out when “UniProt Q9D786 (peptide sequence: ASELLLPR, peptide start residue: 507)” was run?
**A.** The log2 fold change was 0.115.

**Q.** How did the log2 fold change turn out when “UniProt Q9D9K3 (peptide sequence: NDDGKELGMHLR, peptide start residue: 207)” was run?
**A.** Its log2 fold change is -0.591.

**Q.** How did the log2 fold change turn out when “UniProt Q9D2G2 (peptide sequence: VEGGTPLFTLR, peptide start residue: 135)” was run?
**A.** Its log2 fold change is -0.56.

**Q.** How did the log2 fold change turn out when “UniProt Q9D938 (peptide sequence: GGGWWWAR, peptide start residue: 2)” was run?
**A.** Its log2 fold change is 0.137.

**Q.** Which log2 fold change does the source give for “UniProt Q9D964 (peptide sequence: NSCAAEDK, peptide start residue: 48)” here?
**A.** The log2 fold change was -0.161.

**Q.** Which log2 fold change does the source give for “UniProt Q9D5R3 (peptide sequence: LQVLTPQKLELVK, peptide start residue: 98)” here?
**A.** The log2 fold change was -0.136.

**Q.** How did the log2 fold change turn out when “UniProt Q9D1M0 (peptide sequence: FASGGCDNLIK, peptide start residue: 182)” was run?
**A.** Its log2 fold change is -0.477.

**Q.** For “UniProt Q9D1E8 (peptide sequence: ATHVAFDSMK, peptide start residue: 210)”, which log2 fold change is on record?
**A.** Its log2 fold change is 0.556.

**Q.** How did the log2 fold change turn out when “UniProt Q9D3D0 (peptide sequence: AREELQEKPEWR, peptide start residue: 44)” was run?
**A.** The log2 fold change was -0.0533.

**Q.** How did the log2 fold change turn out when “UniProt Q9D620 (peptide sequence: GSESEPLPTVSEKEK, peptide start residue: 449)” was run?
**A.** The log2 fold change was -0.231.

**Q.** For “UniProt Q9D8M4 (peptide sequence: EMGSPGYRGDR, peptide start residue: 227)”, which log2 fold change is on record?
**A.** Its log2 fold change is 0.927.

**Q.** How did the log2 fold change turn out when “UniProt Q9D8X1 (peptide sequence: KQAWISSGK, peptide start residue: 10)” was run?
**A.** Its log2 fold change is -0.0853.

**Q.** With “UniProt Q9D3N8 (peptide sequence: TDQEVLAELVR, peptide start residue: 222)” as the target, how does the log2 fold change read?
**A.** The log2 fold change was 0.313.

**Q.** With “UniProt Q9D4J1 (peptide sequence: LGAPQTHLGLK, peptide start residue: 124)” as the target, how does the log2 fold change read?
**A.** The log2 fold change was 0.01.

**Q.** For “UniProt Q9D7N9 (peptide sequence: RPLRPQVVTDDGQVPEVK, peptide start residue: 11)”, which log2 fold change is on record?
**A.** The log2 fold change was 0.123.

**Q.** How did the log2 fold change turn out when “UniProt Q9D1N9 (peptide sequence: VNELIATGQYGR, peptide start residue: 87)” was run?
**A.** Its log2 fold change is 0.231.

**Q.** “UniProt Q9DAM5 (peptide sequence: YHGIFQAAK, peptide start residue: 59)” was tested. Which log2 fold change did it give?
**A.** The log2 fold change was 0.0576.

**Q.** “UniProt Q9DAI2 (peptide sequence: GSLALSPPLNK, peptide start residue: 132)” was tested. Which log2 fold change did it give?
**A.** Its log2 fold change is 0.187.

**Q.** With “UniProt Q9D7K5 (peptide sequence: FQDKEEWIRPNNR, peptide start residue: 100)” as the target, how does the log2 fold change read?
**A.** The log2 fold change was 0.23.

**Q.** How did the log2 fold change turn out when “UniProt Q9D684 (peptide sequence: VHSQDLSTGPK, peptide start residue: 279)” was run?
**A.** Its log2 fold change is -0.345.

**Q.** Which log2 fold change does the source give for “UniProt Q9D1H7 (peptide sequence: ASVEKGDYYEAHQMYR, peptide start residue: 32)” here?
**A.** The log2 fold change was 0.331.

**Q.** For “UniProt Q9D6Y4 (peptide sequence: DHMNTSAQGHSQEK, peptide start residue: 99)”, which log2 fold change is on record?
**A.** The log2 fold change was -0.761.

**Q.** With “UniProt Q9D8P7 (peptide sequence: VDPEGTDKTVLK, peptide start residue: 91)” as the target, how does the log2 fold change read?
**A.** Its log2 fold change is -0.0144.

**Q.** Which log2 fold change does the source give for “UniProt Q9D174 (peptide sequence: ANECVQYQHVLHR, peptide start residue: 44)” here?
**A.** Its log2 fold change is -0.508.

**Q.** For “UniProt Q9D924 (peptide sequence: AALTLTPSAVNK, peptide start residue: 23)”, which log2 fold change is on record?
**A.** Its log2 fold change is 0.119.

**Q.** Which log2 fold change does the source give for “UniProt Q9D1M7 (peptide sequence: AVIPSHLAYGKR, peptide start residue: 111)” here?
**A.** Its log2 fold change is -0.00165.

**Q.** “UniProt Q9D7A8 (peptide sequence: TVVLHIDGLDDTSRR, peptide start residue: 144)” was tested. Which log2 fold change did it give?
**A.** The log2 fold change was -0.427.

**Q.** “UniProt Q9D9H8 (peptide sequence: SNELLLLTSR, peptide start residue: 64)” was tested. Which log2 fold change did it give?
**A.** The log2 fold change was -0.278.

**Q.** For “UniProt Q9D1L0 (peptide sequence: LCEGFNEVLR, peptide start residue: 135)”, which log2 fold change is on record?
**A.** Its log2 fold change is 0.261.

**Q.** For “UniProt Q9D7X8 (peptide sequence: ISDEMEDIIK, peptide start residue: 172)”, which log2 fold change is on record?
**A.** Its log2 fold change is 0.0926.

**Q.** “UniProt Q9D385 (peptide sequence: SSSTPASQNNLR, peptide start residue: 151)” was tested. Which log2 fold change did it give?
**A.** Its log2 fold change is 0.489.
